Reference: US20180362485A1, “N-HYDROXYFORMAMIDE COMPOUNDS AND COMPOSITIONS COMPRISING THEM FOR USE AS BMP l, TLL1 AND/OR TLL2 INHIBITORS” (GlaxoSmithKline Intellectual Property (No. 2) Limited, priority 2015, published 2018)
Counter-ions that a name gives are not always drawn. Some of these results come from one statement about several compounds together.

Assay: Human plasma stability assay
Details: 37° C., within 24 hours

Row | Compound | conversion to a BMP1, TLL1 and/or TLL2 inhibitor in human plasma
1 | CCCCC[C@@H](C(=O)NCNC(=O)c1ccc(-c2ccc(C(=O)N[C@@H](CC(=O)O)C(=O)O)c(OCC)c2)o1)[C@@H](CC)N(C=O)OC(=O)c1ccc(OC)cc1Cl [Example 206, (S)-2-(4-(5-((((R)-2-((R)-1-(N-((2-chloro-4-methoxybenzoyl)oxy)formamido)propyl)heptanamido)methyl)carbamoyl)furan-2-yl)-2-ethoxybenzamido) succinic acid] | convert to a BMP1, TLL1 and/or TLL2 inhibitor within 24 hours
2 | CCCCC[C@@H](C(=O)NCNC(=O)c1ccc(-c2ccc(C(=O)N[C@@H](CC(=O)O)C(=O)O)c(OCC(=O)O)c2)o1)[C@@H](CC)N(C=O)OC(=O)C1CC1C (stereo partly drawn) [Example 19, (2S)-2-(2-(carboxymethoxy)-4-(5-((((2R)-2-((1R)-1-(N-((2-methylcyclopro-panecarbonyl)oxy) formamido)propyl)heptanamido)methyl)carbamoyl)furan-2-yl)benzamido) succinic acid] | convert to a BMP1, TLL1 and/or TLL2 inhibitor within 24 hours
3 | CCCCC[C@@H](C(=O)NCNC(=O)c1ccc(-c2ccc(C(=O)N[C@@H](CC(=O)O)C(=O)O)c(OCC(=O)O)c2)o1)[C@@H](CC)N(C=O)OC(=O)C(CCC)CCC [Example 43, (S)-2-(2-(carboxymethoxy)-4-(5-((((R)-2-((R)-1-(N-((2-propylpentanoyl)oxy) formamido)propyl)heptanamido)methyl)carbamoyl)furan-2-yl)benzamido) succinic acid] | convert to a BMP1, TLL1 and/or TLL2 inhibitor within 24 hours
4 | CCCCC[C@@H](C(=O)NCNC(=O)c1ccc(-c2cc(OCC)cc(P(=O)(O)O)c2)o1)[C@@H](CC)N(C=O)OC(=O)NC(C)(C)C [Example 55, (3-ethoxy-5-(5-(((4R,5R)-5-ethyl-6-formyl-10,10-dimethyl-3,8-dioxo-4-pentyl-7-oxa-2,6,9-triazaundecyl)carbamoyl)furan-2-yl)phenyl)phosphonic acid] | convert to a BMP1, TLL1 and/or TLL2 inhibitor within 24 hours
5 | CCCCC[C@@H](C(=O)NCNC(=O)c1ccc(-c2ccc(C(=O)N[C@@H](CC(=O)O)C(=O)O)c(OCC(=O)O)c2)o1)[C@@H](CC)N(C=O)OC(=O)c1c(C)cccc1OC [Example 87, (2S)-2-(2-(carboxymethoxy)-4-(5-((((R)-2-((R)-1-(N-((2-methoxy-6-methylbenzoyl)oxy) formamido)propyl)heptanamido)methyl)carbamoyl)tetrahydrofuran-2-yl)benzamido)succinic acid] | convert to a BMP1, TLL1 and/or TLL2 inhibitor within 24 hours
6 | CCCCC[C@@H](C(=O)NCNC(=O)c1ccc(-c2ccc(C(=O)N[C@@H](CC(=O)O)C(=O)O)c(OCC(=O)O)c2)o1)[C@@H](CC)N(C=O)OC(=O)c1ccc(OC)c(OC)c1 [Example 42, (S)-2-(2-(carboxymethoxy)-4-(5-((((R)-2-((R)-1-(N-((3,4-dimethoxybenzoyl)oxy)formamido)propyl)heptanamido)methyl)carbamoyl)furan-2-yl)benzamido) succinic acid] | convert to a BMP1, TLL1 and/or TLL2 inhibitor within 24 hours
7 | CCCCC[C@@H](C(=O)NCNC(=O)c1ccc(-c2cc(OCC)cc(P(=O)(O)O)c2)o1)[C@@H](CC)N(C=O)OC(=O)Nc1ccccc1 [Example 92, (3-ethoxy-5-(5-((((R)-2-((R)-1-(N-((phenylcarbamoyl)oxy)formamido)propyl)heptanamido)methyl)carbamoyl)furan-2-yl)phenyl)phosphonic acid] | convert to a BMP1, TLL1 and/or TLL2 inhibitor within 24 hours
8 | CCCCC[C@@H](C(=O)NCNC(=O)c1ccc(-c2ccc(C(=O)N[C@@H](CC(=O)O)C(=O)O)c(OCC)c2)o1)[C@@H](CC)N(C=O)OC(=O)c1cccc(N2CCCC2)c1 [Example 76, (S)-2-(2-ethoxy-4-(5-((((R)-2-((R)-1-(N-((3-(pyrrolidin-1-yl)benzoyl)oxy) formamido)propyl)heptanamido)methyl)carbamoyl)furan-2-yl)benzamido) succinic acid, 2Ammonia salt] | convert to a BMP1, TLL1 and/or TLL2 inhibitor within 24 hours
9 | CCCCC[C@@H](C(=O)NCNC(=O)c1ccc(-c2cc(OCC)cc(P(=O)(O)O)c2)o1)[C@@H](CC)N(C=O)OC(=O)c1ccc(-n2cccc2)cc1 [Example 58, (3-(5-((((R)-2-((R)-1-(N-((4-(1H-pyrrol-1-yl)benzoyl)oxy) formamido)propyl)heptanamido)methyl)carbamoyl)furan-2-yl)-5-ethoxyphenyl) phosphonic acid, 2Ammonia salt] | convert to a BMP1, TLL1 and/or TLL2 inhibitor within 24 hours
10 | CCCCC[C@@H](C(=O)NCNC(=O)c1ccc(-c2ccc(C(=O)N[C@@H](CC(=O)OCOC(=O)C(C)C)C(=O)OCOC(=O)C(C)C)c(OCC)c2)o1)[C@@H](CC)N(O)C=O [Example 111, (S)-bis((isobutyryloxy)methyl) 2-(2-ethoxy-4-(5-((((R)-2-((R)-1-(N-hydroxy-formamido)propyl)heptanamido)methyl)carbamoyl)furan-2-yl)benzamido) succinate] | convert to a BMP1, TLL1 and/or TLL2 inhibitor within 24 hours
11 | CCCCC[C@@H](C(=O)NCNC(=O)c1ccc(-c2ccc(C(=O)N[C@@H](CC(=O)O)C(=O)O)c(OCC(=O)O)c2)o1)[C@@H](CC)N(C=O)OC(=O)NC(C)(C)c1ccccc1 [Example 36, (S)-2-(2-(carboxymethoxy)-4-(5-(((4R,5R)-5-ethyl-6-formyl-10-methyl-3,8-dioxo-4-pentyl-10-phenyl-7-oxa-2,6,9-triazaundecyl)carbamoyl)furan-2-yl)benzamido) succinic acid] | convert to a BMP1, TLL1 and/or TLL2 inhibitor within 24 hours
12 | CCCCC[C@@H](C(=O)NCNC(=O)c1ccc(-c2cc(OCC)cc(P(=O)(O)O)c2)o1)[C@@H](CC)N(C=O)OC(=O)c1cccc(N2CCCC2)c1 [Example 63, (3-ethoxy-5-(5-((((R)-2-((R)-1-(N-((3-(pyrrolidin-1-yl)benzoyl)oxy) formamido)propyl)heptanamido)methyl)carbamoyl)furan-2-yl)phenyl)phosphonic acid, 2Ammonia salt] | convert to a BMP1, TLL1 and/or TLL2 inhibitor within 24 hours
13 | CCCCC[C@@H](C(=O)NCNC(=O)c1ccc(-c2cc(OCC)cc(P(=O)(O)O)c2)o1)[C@@H](CC)N(C=O)OC(=O)c1ccc(CN2CCOCC2)cc1 [Example 73, (3-ethoxy-5-(5-((((R)-2-((R)-1-(N-((4-(morpholinomethyl)benzoyl)oxy) formamido)propyl)heptanamido)methyl)carbamoyl)furan-2-yl)phenyl)phosphonic acid] | convert to a BMP1, TLL1 and/or TLL2 inhibitor within 24 hours
14 | CCCCC[C@@H](C(=O)NCNC(=O)c1ccc(-c2cc(OCC)cc(P(=O)(O)O)c2)o1)[C@@H](CC)N(C=O)OC(=O)c1ccccc1O [Example 16, (3-ethoxy-5-(5-((((R)-2-((R)-1-(N-((2-hydroxybenzoyl)oxy)formamido)propyl)heptanamido)methyl)carbamoyl)furan-2-yl)phenyl) phosphonic acid] | convert to a BMP1, TLL1 and/or TLL2 inhibitor within 24 hours
15 | CCCCC[C@@H](C(=O)NCNC(=O)c1ccc(-c2ccc(C(=O)N[C@@H](CC(=O)O)C(=O)O)c(OCC(=O)O)c2)o1)[C@@H](CC)N(C=O)OP(=O)(N[C@@H](C)C(=O)OC)Oc1ccccc1 (stereo partly drawn) [Example 37, (2S)-2-(2-(carboxymethoxy)-4-(5-((((2R)-2-((1R)-1-(N-(((((S)-1-methoxy-1-oxopropan-2-yl)amino)(phenoxy)phosphoryl)oxy) formamido)propyl)heptanamido)methyl)carbamoyl)furan-2-yl)benzamido) succinic acid, 3Ammonia salt] | convert to a BMP1, TLL1 and/or TLL2 inhibitor within 24 hours
16 | CCCCC[C@@H](C(=O)NCNC(=O)c1ccc(-c2ccc(C(=O)N[C@@H](CC(=O)O)C(=O)Oc3ccccc3)c(OCC)c2)o1)[C@@H](CC)N(O)C=O [Example 110, (S)-3-(2-ethoxy-4-(5-((((R)-2-((R)-1-(N-hydroxyformamido)propyl)heptanamido)methyl)carbamoyl)furan-2-yl)benzamido)-4-oxo-4-phenoxybutanoic acid] | convert to a BMP1, TLL1 and/or TLL2 inhibitor within 24 hours
17 | CCCCC[C@@H](C(=O)NCNC(=O)c1ccc(-c2cc(OCC)cc(P(=O)(O)OCc3oc(=O)oc3C)c2)o1)[C@@H](CC)N(O)C=O [Example 301, (5-methyl-2-oxo-1,3-dioxol-4-yl)methyl hydrogen (3-ethoxy-5-(5-((((R)-2-((R)-1-(N-hydroxyformamido)propyl)heptanamido)methyl)carbamoyl)furan-2-yl)phenyl) phosphonate] | convert to a BMP1, TLL1 and/or TLL2 inhibitor within 24 hours
18 | CCCCC[C@@H](C(=O)NCNC(=O)c1ccc(-c2cc(OCC)cc(P(=O)(O)O)c2)o1)[C@@H](CC)N(C=O)OC(=O)c1ccc(CN2CCOCC2)cc1C [Example 64, (3-ethoxy-5-(5-((((R)-2-((R)-1-(N-((2-methyl-4-(morpholinomethyl)benzoyl)oxy) formamido)propyl)heptanamido)methyl)carbamoyl)furan-2-yl)phenyl)phosphonic acid] | convert to a BMP1, TLL1 and/or TLL2 inhibitor within 24 hours
19 | CCCCC[C@@H](C(=O)NCNC(=O)c1ccc(-c2ccc(C(=O)N[C@@H](CC(=O)O)C(=O)O)c(OCC(=O)O)c2)o1)[C@@H](CC)N(C=O)OC(=O)N(C)C(=O)OC(C)(C)C [Example 95, N-{[2-(carboxymethoxy)-4-(5-{[(4R,5R)-5-ethyl-6-formyl-9,12,12-trimethyl-3,8,10-trioxo-4-pentyl-7,11-dioxa-2,6,9-triazatridec-1-yl]carbamoyl}furan-2-yl)phenyl]carbonyl}-L-aspartic acid] | convert to a BMP1, TLL1 and/or TLL2 inhibitor within 24 hours
